Measured values: PubChem BioAssay AID330 (DTP/NCI, 2004)
The list does not hold the whole screen: it gathers tests that were run many times, whatever their T/C, doses with no T/C, and many T/C values between a quarter and a half above the control. Further doses and runs are listed elsewhere. T/C is the treated group as % of the vehicle group. Some entries give survivors of the animals treated and no T/C: the source holds a T/C of zero for them, seemingly a mark for toxic or unscored doses. Some survivor counts are full or nearly so, which does not show that the dose was tolerated: the source hardly ever lists a survival T/C far under the control, and the zero likely stands for such cases as well. Survivors were counted at the toxicity check, usually on the fifth day, unless a day is given; later deaths do not show. Schedules are NCI's codes, taken here to give the interval after Q, in days (D) or hours (H), and the number of doses after X. For survival time, the PubChem record calls one and a half times the control and up active, and a quarter to a half above the control has no call in these data; cut-offs in other NCI protocols can differ. Some entries were tested several times; the values are given in rising order. Some T/C values are followed by the survivors on the day toxicity was checked, most often the fifth; without a count, all were alive then.

Tested on: P388 leukemia ip, CD2F1 mice, survival T/C
Test: NCI In Vivo Anticancer Drug Screen. Data for tumor model P388 Leukemia (intraperitoneal) in CD2F1 (CDF1) mice
Settings: T/C endpoint: median survival time, higher T/C = longer survival
[1] = dose: 240.0 mg/kg/injection, schedule: Q01DX005 (ip), vehicle: saline with Tween-80
[2] = dose: 100.0 mg/kg/injection, schedule: Q01DX005 (ip), vehicle: Klucel (hydroxypropylcellulose) (HPC)
[3] = dose: 200.0 mg/kg/injection, schedule: Q01DX005 (ip), vehicle: Klucel (hydroxypropylcellulose) (HPC)
[4] = dose: 200.0 mg/kg/injection, schedule: Q01DX009 (ip), vehicle: saline with Tween-80

CCCCCCCCCCCCSC1=CC(=O)C(OC)=C(OC)C1=O
survivor count (dose: 25.0 mg/kg/injection, schedule: Q01DX030 (ip), vehicle: saline with Tween-80): 3 of 6 | survivor count (dose: 50.0 mg/kg/injection, schedule: Q01DX030 (ip), vehicle: saline with Tween-80): 0 of 6 | survivor count (dose: 100.0 mg/kg/injection, schedule: Q01DX030 (ip), vehicle: saline with Tween-80): 0 of 6 | survivor count (dose: 200.0 mg/kg/injection, schedule: Q01DX030 (ip), vehicle: saline with Tween-80): 0 of 6

BrC1C2CCC3OC3C12 (configuration not stated)
survivor count [1]: 4 of 6

O=NNc1cnc(Br)cn1
T/C (dose: 50.0 mg/kg/injection, schedule: Q01DX009 (ip), vehicle: water): 126 and 133 % of control

COc1cc([C@@H]2c3cc4c(cc3[C@H](OC(=O)c3ccncc3)[C@H]3COC(=O)[C@H]23)OCO4)cc(OC)c1OC
survivor count (dose: 50.0 mg/kg/injection, schedule: Q01DX005 (ip), vehicle: Klucel (hydroxypropylcellulose) (HPC)): 0 of 5 | survivor count [2]: 0 of 5 | survivor count [3]: 0 of 5

Oc1c(CNCCCN2CCCC2)cc(Cl)c2cccnc12
survivor count (dose: 200.0 mg/kg/injection, schedule: Q01DX009 (ip), vehicle: saline): 1 of 6

CCCN(CCC)CCN1C(=O)NC(C)(c2ccccc2)C1=O (configuration not stated)
survivor count (dose: 120.0 mg/kg/injection, schedule: Q01DX005 (ip), vehicle: saline with Tween-80): 0 of 6 | survivor count [1]: 0 of 6

Clc1ccc(C2N(Cc3ccccc3)CCC3CCCCN32)cc1Cl (configuration not stated)
survivor count [4]: 6 of 6

N#CCCC1CS1 (configuration not stated)
survivor count (dose: 150.0 mg/kg/injection, schedule: Q01DX009 (ip), vehicle: saline with Tween-80): 4 of 6 | survivor count (dose: 300.0 mg/kg/injection, schedule: Q01DX009 (ip), vehicle: saline with Tween-80): 0 of 6

CS(=O)(=O)C(=S)Sc1ccccc1
survivor count (dose: 100.0 mg/kg/injection, schedule: Q01DX001 (ip), vehicle: saline with Tween-80): 3 of 6

CCN(CC)CCCCNC(=O)c1noc2cc([N+](=O)[O-])ccc12
T/C (dose: 12.5 mg/kg/injection, schedule: Q01DX005 (ip), vehicle: Klucel (hydroxypropylcellulose) (HPC)): 125 % of control | T/C (dose: 50.0 mg/kg/injection, schedule: Q01DX005 (ip), vehicle: Klucel (hydroxypropylcellulose) (HPC), evaluated on day 20): 100 % of control | T/C (dose: 50.0 mg/kg/injection, schedule: Q01DX005 (ip), vehicle: Klucel (hydroxypropylcellulose) (HPC), evaluated on day 30): 100 [5 of 6 alive], 101, 105 % of control | survivor count [2]: 0 of 5 | survivor count [3]: 0 of 5

COc1ccc2c(c1)C1CCN(C)CC1OC2=O (configuration not stated)
survivor count (dose: 100.0 mg/kg/injection, schedule: Q01DX009 (ip), vehicle: saline with Tween-80): 3 of 6 | survivor count [4]: 1 of 6

CN=C(NC)NCCSCc1ccc2ccccc2n1
survivor count (dose: 100.0 mg/kg/injection, schedule: Q01DX005 (ip), vehicle: saline): 0 of 5 | survivor count (dose: 200.0 mg/kg/injection, schedule: Q01DX005 (ip), vehicle: saline): 0 of 5

COc1cc([C@@H]2c3cc4c(c(O)c3C[C@H]3COC(=O)[C@@H]32)OCO4)cc(OC)c1OC
T/C (dose: 0.5 mg/kg/injection, schedule: Q01DX009 (ip), vehicle: suspension in saline): 129 % of control | T/C (dose: 1.0 mg/kg/injection, schedule: Q01DX009 (ip), vehicle: saline): 126 % of control | T/C (dose: 1.0 mg/kg/injection, schedule: Q01DX009 (ip), vehicle: suspension in saline): 142 % of control | T/C (dose: 2.0 mg/kg/injection, schedule: Q01DX009 (ip), vehicle: saline): 146 % of control | T/C (dose: 2.0 mg/kg/injection, schedule: Q01DX009 (ip), vehicle: suspension in saline): 148 % of control | T/C (dose: 4.0 mg/kg/injection, schedule: Q01DX009 (ip), vehicle: saline): 146 % of control | survivor count (dose: 4.0 mg/kg/injection, schedule: Q01DX009 (ip), vehicle: suspension in saline): 5 of 6
